These are yes or no findings as the source states them, for the method shown. In cells and extracts the contact can be indirect. Here binding means that the protein was enriched with, or labelled near, the bait; the list need not be complete. Where a sequence is shown, tags or fusion partners need not be part of it.
Molecular target: T1, Flag-SNAPIN (Snapin full length in PCDH-3xFlag-3xHA-EF1-puromycin vector) (UniProt Q9Z266)
T1 sequence: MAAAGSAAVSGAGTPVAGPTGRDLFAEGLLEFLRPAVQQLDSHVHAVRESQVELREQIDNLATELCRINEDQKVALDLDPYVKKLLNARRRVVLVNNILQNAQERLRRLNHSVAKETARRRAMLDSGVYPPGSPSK
Assay: affinity purification with mass spectrometry; Min6 cells expressing Flag-SNAPIN or PCDH vector; whole cell lysates on Flag beads, eluted with Flag peptide; shotgun LC-MS/MS; each IP in triplicate

B1: Bloc1s1 (protein, UniProt O55102 1-125)
chain: MLSRLLKEHQAKQNERKELQEKRRREAIAAATCLTEALVDHLNVGVAQAYMNQRKLDHEVKTLQVQAAQFAKQTGQWIGMVENFNQALKEIGDVENWARSIELDMRTIATALEYVYKGQLQSAPS
B1 was tested, and the binding was “binds”.

From publication PMC8237857
